Results are given in words; binding and its absence hold for the method and conditions named. In cells and extracts the contact can be indirect. Some results given as binding are weak or reduced against the parent protein; the word gives no strength. Tags and fused reporters may be left off the sequences shown.
Assays:
[1] = target: T1, HA-FSP1 (in MHCC-97H) (human) (UniProt Q9BRQ8); assay: co-IP; MHCC-97H cells co-transfected with Flag-TRIM21 and HA-FSP1, treated with 1 µM RSL3 for 0-4 h; anti-HA antibodies; immunoblot
T1 sequence: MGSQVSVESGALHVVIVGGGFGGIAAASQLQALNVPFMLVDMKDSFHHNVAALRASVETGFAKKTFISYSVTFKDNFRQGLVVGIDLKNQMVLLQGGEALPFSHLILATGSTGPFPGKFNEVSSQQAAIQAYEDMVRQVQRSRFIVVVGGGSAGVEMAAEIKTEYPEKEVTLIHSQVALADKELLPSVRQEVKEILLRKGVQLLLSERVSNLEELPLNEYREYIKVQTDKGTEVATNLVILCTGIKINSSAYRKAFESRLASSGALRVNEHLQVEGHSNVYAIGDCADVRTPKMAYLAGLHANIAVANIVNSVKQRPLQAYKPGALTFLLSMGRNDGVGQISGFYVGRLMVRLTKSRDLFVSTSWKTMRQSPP

By UniProt entry, the sequences of proteins in these tests, tags left out.
UniProt P19474: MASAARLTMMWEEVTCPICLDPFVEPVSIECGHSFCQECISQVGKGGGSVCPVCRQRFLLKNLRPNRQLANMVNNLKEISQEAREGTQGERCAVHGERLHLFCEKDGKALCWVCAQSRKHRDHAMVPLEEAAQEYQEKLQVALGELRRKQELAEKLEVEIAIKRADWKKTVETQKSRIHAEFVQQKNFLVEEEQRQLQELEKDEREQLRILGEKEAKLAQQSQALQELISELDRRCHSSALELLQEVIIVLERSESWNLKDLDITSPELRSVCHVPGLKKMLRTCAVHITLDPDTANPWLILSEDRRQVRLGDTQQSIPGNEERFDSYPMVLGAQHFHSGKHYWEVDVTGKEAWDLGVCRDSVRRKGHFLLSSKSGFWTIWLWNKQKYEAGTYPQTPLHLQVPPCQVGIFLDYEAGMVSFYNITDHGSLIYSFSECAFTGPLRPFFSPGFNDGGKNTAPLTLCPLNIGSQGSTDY

[2] = target: T2, HA-FSP1 (in HEK293T) (human) (UniProt Q9BRQ8); assay: co-IP; HEK293T cells transfected with HA- and Flag-tagged plasmids; anti-Flag or anti-HA antibodies with Protein A/G magnetic beads, 4 °C overnight; IP lysis buffer 20 mM Tris-HCl pH 7.4, 1 mM EDTA, 150 mM NaCl, 1% NP-40; immunoblot
T2 sequence: T1 sequence

binding [1] | binding [2] | Substance
binds |  | Flag-TRIM21 (in MHCC-97H) (from UniProt P19474 1-475)
 | binds | Flag-TRIM21 (in HEK293T) (from UniProt P19474 1-475)
